In patent US10399966B2, “Compounds for treatment of trypanosomes and neurological pathogens and uses thereof” (The University of North Carolina at Chapel Hill, priority 2016, dated 2019):

Tests used:
[1] = tested on: human lymphocytes CRL-8155; experiment: Cytotoxicity against CRL-8155 cells; conditions: Selectivity index: EC50 (cell line)/EC50 (T. b. brucei)
human hepatocytes HepG2 = experiment: Cytotoxicity against HepG2 cells; conditions: Selectivity index: EC50 (cell line)/EC50 (T. b. brucei)

| SMILES | CRL-8155 SI [1] | HepG2 SI (human hepatocytes HepG2) |
| --- | --- | --- |
| O=C(Nc1ccc2sc(-c3ccc(F)c(F)c3)nc2c1)N1CCC(F)(F)C1 [Compound 9, 2-(3,4-Difluorophenyl)-5-(3,3-difluoro-N-pyrrolidylamido)benzothiazole] | >54 |  |
| O=C(Nc1ccc2sc(-c3ccccc3)nc2c1)c1cccs1 [Compound 18, 2-Phenyl-5-(2-thienylamido)benzothiazole] | >57 |  |
| O=C(Nc1ccc2sc(-c3cccc(F)c3)nc2c1)c1ccccc1 [Compound 28, 5-Benzamido-2-(3-fluorophenyl)benzothiazole] | above 500 |  |
| O=C(Nc1ccc2sc(-c3ccccc3F)nc2c1)N1CCCC1 [Compound 32, 2-(2-Fluorophenyl)-5-(N-pyrrolidylamido)benzothiazole] | >51 |  |
| O=C(Nc1ccc2sc(-c3ccccc3F)nc2c1)N1CCCCC1 [Compound 33, 2-(2-Fluorophenyl)-5-(N-piperidylamido)benzothiazole] | >53 |  |
| N=C(N)c1ccc(OCCCCCOc2ccc(C(=N)N)cc2)cc1 [penth, Pentamidine, reference compound] | >43200 | >93000 |
